According to article PMC10410440, “Preclinical PK investigation of a novel IDO1/TDO dual inhibitor—SHR9146 in mouse plasma and tissues by LC-MS/MS” (Frontiers in Oncology, 2023):
Values joined by “and” are separate entries in the source; they are usually repeats but may differ in a detail not shown here. Equal entries are not always repeated. Further values from the same series stand in other lists.

Test: Tissue distribution of SHR9146 in mice after oral gavage of 40 mg/kg
Assay type: in vivo, ICR mice
Details: 40 mg/kg oral gavage, individual mice
Description: ICR mice with body weight 16–26 g were supplied by Shanghai Lingchang Biotechnology Co., Ltd. (animal breeding license number SCXK (Shanghai) 2013-0018) and housed at Shanghai Institute of Materia Medica, Chinese Academy of Sciences [animal use license number SYXK (Shanghai) 2015-0027]. The mice used in this study were fasted overnight for 12 h but had free access to water. Food was supplied 4 h post-dose. All experiments in this study were conducted in accordance with the Guidelines for the Care and Use of Laboratory Animals of Shanghai Institute of Materia Medica, Chinese Academy of Sciences.
Another set of 30 mice were randomly assigned into five groups with equal numbers, males and females, for tissue distribution study with oral gavage at a single dose of 40 mg/kg at predetermined different time points: pre-dose and post dose at 1, 3, 6, and 24 h, respectively. The whole brain, heart, liver, spleen, lung, kidney, bladder, pancreas, testis, ovary, uterus, stomach, small intestine, adrenal gland, skin, skeletal muscle, thyroid gland, and abdominal fat tissues as well as the whole blood and plasma samples were harvested. Tissue samples were washed with 0.9% sodium chloride solution to remove the residual blood or contents, blotted on a filter paper, and stored at −70°C prior to the analysis.
Protein precipitation was selected for the pretreatment of both the plasma and the tissue homogenate prepared after thawing at room temperature, cut into pieces, and homogenized with a quintuple methanol–water mixture (1:1, v/v) for each tissue sample.
Briefly as follows, an aliquot of 25-μL plasma or tissue homogenate was spiked with 100 μL of internal standard solution (1 μg/mL for plasma, 0.2 μg/mL for tissue homogenate) and 300 μL of methanol added and vortex mixed for 60 s. The mixture was then centrifuged at 14,000 rpm at 4°C for 5.0 min, and the supernatant was diluted with methanol–water (4:1, v/v) in a ratio of 1:9 for the plasma or 1:1 for the tissue homogenate, and 5 μL of the resulting solution was injected for the LC-MS/MS analysis.
After oral administration of 40 mg/kg SHR9146, samples in different tissues at predetermined time points (pre-drug administration, post-drug administration at 1, 3, 6, and 24 h) were collected and prepared for the analysis. The drug concentrations of SHR9146 (μg/g or μg/mL) were determined for each mouse, and the mean and standard deviation were further obtained (Table S7).

SHR9146 concentration in Abdominal fat (female, 1 h): 15.163 µg/g and 13.658 µg/g
SHR9146 concentration in Adrenal gland (female, 1 h): 48.417 µg/g and 30.170 µg/g
SHR9146 concentration in Brain (female, 1 h): 2.851 µg/g and 2.073 µg/g
SHR9146 concentration in Heart (female, 1 h): 12.549 µg/g and 8.655 µg/g
SHR9146 concentration in Ovary (female, 1 h): 21.867 µg/g and 16.170 µg/g
SHR9146 concentration in Plasma (female, 1 h): 15.949 µg/mL and 11.706 µg/mL
SHR9146 concentration in Skeletal muscle (female, 1 h): 10.584 µg/g and 6.380 µg/g
SHR9146 concentration in Skin (female, 1 h): 14.126 µg/g and 9.548 µg/g
SHR9146 concentration in Spleen (female, 1 h): 8.069 µg/g and 5.842 µg/g
SHR9146 concentration in Stomach (female, 1 h): 31.730 µg/g and 24.126 µg/g
SHR9146 concentration in Uterus (female, 1 h): 13.423 µg/g and 9.041 µg/g
SHR9146 concentration in Whole blood (female, 1 h): 11.230 µg/mL and 7.393 µg/mL
SHR9146 concentration in thyroid gland (female, 1 h): 11.884 µg/g and 8.433 µg/g
SHR9146 concentration in Brain (female, 3 h): 1.713 µg/g and 2.082 µg/g and 0.887 µg/g
SHR9146 concentration in Heart (female, 3 h): 7.542 µg/g and 9.931 µg/g and 3.633 µg/g
SHR9146 concentration in Skeletal muscle (female, 3 h): 6.781 µg/g and 7.825 µg/g and 3.125 µg/g
SHR9146 concentration in Spleen (female, 3 h): 5.069 µg/g and 6.401 µg/g and 2.751 µg/g
SHR9146 concentration in Stomach (female, 3 h): 28.434 µg/g and 24.290 µg/g
SHR9146 concentration in Uterus (female, 3 h): 6.328 µg/g and 8.819 µg/g and 2.989 µg/g
SHR9146 concentration in thyroid gland (female, 3 h): 7.190 µg/g and 9.783 µg/g and 3.848 µg/g
SHR9146 concentration in Abdominal fat (female, 6 h): 1.072 µg/g and 0.057 µg/g and 0.117 µg/g
SHR9146 concentration in Heart (female, 6 h): 0.851 µg/g and 0.052 µg/g and 0.098 µg/g
SHR9146 concentration in Ovary (female, 6 h): 1.842 µg/g and 0.270 µg/g
SHR9146 concentration in Skeletal muscle (female, 6 h): 0.812 µg/g and 0.071 µg/g
SHR9146 concentration in Skin (female, 6 h): 1.162 µg/g and 0.119 µg/g and 0.212 µg/g
SHR9146 concentration in Spleen (female, 6 h): 0.659 µg/g and 0.065 µg/g
SHR9146 concentration in Stomach (female, 6 h): 7.838 µg/g and 1.544 µg/g and 2.234 µg/g
SHR9146 concentration in Uterus (female, 6 h): 0.978 µg/g and 0.110 µg/g
SHR9146 concentration in Whole blood (female, 6 h): 0.815 µg/mL and 0.079 µg/mL
SHR9146 concentration in thyroid gland (female, 6 h): 0.983 µg/g and 0.053 µg/g and 0.098 µg/g
SHR9146 concentration in Stomach (female, 24 h): 0.908 µg/g and 0.854 µg/g
SHR9146 concentration in Adrenal gland (male, 1 h): 30.720 µg/g and 15.849 µg/g
SHR9146 concentration in Brain (male, 1 h): 2.025 µg/g and 1.358 µg/g
SHR9146 concentration in Heart (male, 1 h): 8.960 µg/g and 4.578 µg/g
SHR9146 concentration in Skeletal muscle (male, 1 h): 6.868 µg/g and 3.823 µg/g
SHR9146 concentration in Skin (male, 1 h): 7.972 µg/g and 9.354 µg/g and 4.304 µg/g
SHR9146 concentration in Spleen (male, 1 h): 5.584 µg/g and 3.409 µg/g
SHR9146 concentration in Stomach (male, 1 h): 32.524 µg/g and 41.599 µg/g
SHR9146 concentration in Testis (male, 1 h): 4.834 µg/g and 3.007 µg/g
SHR9146 concentration in Whole blood (male, 1 h): 7.419 µg/mL and 3.946 µg/mL
SHR9146 concentration in thyroid gland (male, 1 h): 9.009 µg/g and 4.759 µg/g
SHR9146 concentration in Abdominal fat (male, 3 h): 0.268 µg/g and 5.628 µg/g and 6.299 µg/g
SHR9146 concentration in Brain (male, 3 h): 0.981 µg/g
SHR9146 concentration in Heart (male, 3 h): 0.140 µg/g and 3.802 µg/g and 4.054 µg/g
SHR9146 concentration in Skeletal muscle (male, 3 h): 0.111 µg/g and 3.247 µg/g and 3.299 µg/g
SHR9146 concentration in Skin (male, 3 h): 0.202 µg/g and 4.582 µg/g and 4.535 µg/g
SHR9146 concentration in Spleen (male, 3 h): 0.097 µg/g and 2.465 µg/g and 2.538 µg/g
SHR9146 concentration in Testis (male, 3 h): 0.166 µg/g and 2.308 µg/g and 2.504 µg/g
SHR9146 concentration in thyroid gland (male, 3 h): 0.163 µg/g and 3.897 µg/g and 4.136 µg/g
SHR9146 concentration in Abdominal fat (male, 6 h): 0.067 µg/g and 0.157 µg/g
SHR9146 concentration in Heart (male, 6 h): 0.085 µg/g
SHR9146 concentration in Plasma (male, 6 h): 0.094 µg/mL
SHR9146 concentration in Skin (male, 6 h): 0.148 µg/g and 0.058 µg/g and 0.134 µg/g
SHR9146 concentration in Stomach (male, 6 h): 1.364 µg/g and 0.499 µg/g and 1.545 µg/g
SHR9146 concentration in Testis (male, 6 h): 0.101 µg/g and 0.050 µg/g and 0.148 µg/g
SHR9146 concentration in thyroid gland (male, 6 h): 0.117 µg/g
SHR9146 concentration in Stomach (male, 24 h): 0.363 µg/g and 0.231 µg/g and 0.904 µg/g
Compound: OCCn1cc(-c2ccc(N3CCC([C@H]4c5c(F)cccc5-c5cncn54)CC3)cc2)cn1 [SHR9146]
SHR9146 concentration in Abdominal fat (female, 3 h): 9.686 µg/g and 12.161 µg/g and 4.954 µg/g
SHR9146 concentration in Adrenal gland (female, 3 h): 31.830 µg/g and 35.567 µg/g and 15.959 µg/g
SHR9146 concentration in Ovary (female, 3 h): 13.010 µg/g and 17.161 µg/g and 8.006 µg/g
SHR9146 concentration in Plasma (female, 3 h): 9.347 µg/mL and 12.892 µg/mL and 4.974 µg/mL
SHR9146 concentration in Skin (female, 3 h): 8.432 µg/g and 10.770 µg/g and 3.900 µg/g
SHR9146 concentration in Whole blood (female, 3 h): 6.378 µg/mL and 8.869 µg/mL and 3.336 µg/mL
SHR9146 concentration in Plasma (female, 6 h): 1.220 µg/mL and 0.070 µg/mL and 0.124 µg/mL
SHR9146 concentration in Abdominal fat (male, 1 h): 11.412 µg/g and 4.018 µg/g and 6.182 µg/g
SHR9146 concentration in Adrenal gland (male, 3 h): 0.520 µg/g and 13.407 µg/g and 11.425 µg/g
SHR9146 concentration in Plasma (male, 3 h): 0.163 µg/mL and 5.182 µg/mL and 5.790 µg/mL
SHR9146 concentration in Stomach (male, 3 h): 0.927 µg/g and 18.374 µg/g and 11.306 µg/g
SHR9146 concentration in Whole blood (male, 3 h): 0.119 µg/mL and 3.297 µg/mL and 3.895 µg/mL
